Experimental data published in patent publication US20040253243.
Construct, isoform or probe ends are uncertain for at least one entry.

Amino acid sequences for entries named in this document (tags omitted). Chains listed by the source or under a name are the forms on record and can include a tag or linker.
UniProt P61812, other isoform, or with tags, fused parts or gaps: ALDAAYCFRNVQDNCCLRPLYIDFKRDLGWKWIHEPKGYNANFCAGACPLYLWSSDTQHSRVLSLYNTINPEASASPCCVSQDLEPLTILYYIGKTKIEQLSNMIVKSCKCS

target: TGF-beta2 (mature, wild type) (Homo sapiens) (UniProt P61812); experiment: activity in cells; details: 5'-NH2, 2'-F all C and U, 2'-OH purines, 3'-3T; inhibits antiproliferative effect of 50 pg/ml TGF-beta2 on MLEC; purified recombinant protein; variant of ARC77

Sequence	functional effect of the aptamer
GGAGGUUAUUACAGAGUCUGUAUAGCUGUACUCC [ARC78]	active

same assay, conditions: NH2-mGmGmGmGfUfUAfUfUmAfCmAmGmAmGfUfCfUGfUAfUAmGfCfUmGfUmAfCfCfC-3T (m 2'-OMe, f 2'-F); reverses TGF-beta2 inhibition of MLEC proliferation; purified recombinant protein; variant of ARC77; dose not given here

Sequence	functional effect of the aptamer
GGGGUUAUUACAGAGUCUGUAUAGCUGUACCC [ARC81]	active

same assay, conditions: mGmGmAmGmGfUfUAfUfUmAfCmAmGmAmGfUfCfUGfUAfUAmGfCfUmGfUmAfCfUfCfc-3T (m 2'-OMe, f 2'-F); cell IC50; purified recombinant protein; variant of ARC77

Sequence	IC50 [nM]
GGAGGUUAUUACAGAGUCUGUAUAGCUGUACUCC [ARC79]	10

target: TGF-beta2 (mature, wild type) (Homo sapiens) (UniProt P61812); experiment: filter binding; details: 2'-F C and U, 2'-OH purines, 3'-3T; DPBS, 1 mM MgCl2, room temperature; purified recombinant protein; variant of AMX(71)_A8

Sequence	Kd [nM]
AGGGAAUAUUAUAGAGUAUGUAUAGCUAUACCAU [ARC282 (CW128.10.U)]	0.62

same assay, conditions: 2'-F C and U, 2'-OH purines, 3'-3T; DPBS, 1 mM MgCl2, room temperature; purified recombinant protein; variant of AMX(71)_C11

Sequence	Kd [nM]
AUAGAGCAUUAUAGAGUAUGUAUAGCUAUACUAU [CW128.10.F (AMX(71)_C11)]	3.66

same assay, conditions: 2'-F C and U, 2'-OH purines, 3'-3T; DPBS, 1 mM MgCl2, room temperature; purified recombinant protein; variant of ARC230 (S5R8-45)

Sequence	Kd [nM]
GACAGAGUAUUAUAGAGUAUGUAUAGCUAUACUGU [ARC284 (CW128.11.R)]	0.11

same assay, conditions: 2'-F C and U, 2'-OH purines, 3'-3T; DPBS, 1 mM MgCl2, room temperature; purified recombinant protein; variant of ARC235 (S5CR8-45 full length)

Sequence	Kd [nM]
ACAGAGUAUUAUAGAGUAUGUAUAGCUAUACUGUC [ARC283 (CW128.10.M)]	1.27

same assay, conditions: 2'-F C and U, 2'-OH purines, 3'-3T; DPBS, 1 mM MgCl2, room temperature; purified recombinant protein; variant of S5CR12-15

Sequence	Kd [nM]
AAGGAGUAUUAUAGAGUAUGUAUAGCUAUACCAU [ARC281 (CW128.10.R)]	1.42

same assay, conditions: 2'-F pyrimidines, 2'-OH purines; DPBS, 1 mM MgCl2, room temperature; full length; purified recombinant protein

Sequence	Kd [nM]
GGGAGGACGAUGCGGACAGAGUAUUAUAGAGUAUGUAUAGCUAUACUGUCCAGACGACUCGCCCGA [ARC235 (S5CR8-45 full length)]	0.53
GGGAGGACGAUGCGGGGAGGUUAUUACAGAGUCUGUAUAGCUGUACUCCCAGACGACUCGCCCGA [ARC236 (21a-21 full length)]	0.75

same assay, conditions: 2'-F pyrimidines, 2'-OH purines; purified recombinant protein

Sequence	binding result
GGGAGGACGAUGCGGAAAGAGUAUUAUAGAGUCUGUAUAGCUAUACUUUCAGACGACUCGCCCGA [AMX(71)_H7]	binds
GGGAGGACGAUGCGGAACGAAUAUUACAGAGUAUGUAUAGCUGUACGGUCAGACGACUCGCCCGA [ARC231 (S5CR8-14)]	binds
GGGAGGACGAUGCGGAAGGAAUAUUAUAGAGUAUGUAUAGCUAUACCAUCAGACGACUCGCCCGA [AMX(71)_H10]	binds
GGGAGGACGAUGCGGAAGGAGUAUUAUAGAGUAUGUAUAGCUAUACCAGACGACUCGCCCGA [S5CR12-12]	binds
GGGAGGACGAUGCGGAAGGAGUAUUAUAGAGUAUGUAUAGCUAUACCAUCAGACGACUCGCCCGA [S5CR12-15]	binds
GGGAGGACGAUGCGGACAGAGCAUUAUAGAGUGUGUAUAGCUGUACUGUCAGACGACUCGCCCGA [AMX(71)_F11]	binds
GGGAGGACGAUGCGGACAGAGUAUUAUAGAGUAUGUAUAGCUAUACUAUCAGACGACUCGCCCAA [AMX(71)_F3]	binds
GGGAGGACGAUGCGGACAGAGUAUUAUAGAGUAUGUAUAGCUAUACUGCAGACGACUCGCCCGA [S5R12-12]	binds
GGGAGGACGAUGCGGACAGAGUAUUAUAGAGUAUGUAUAGCUAUACUGCCAGACGACUCGCCCGA [S5R12-33]	binds
GGGAGGACGAUGCGGACAGAGUAUUAUAGAGUAUGUGUAGCUAUACCGUCAGACGACUCGCCCGA [AMX(71)_G9]	binds
GGGAGGACGAUGCGGAGAAGAGUAUUAUAGAGUCUGUAUAGCUAUACUUCAGACGACUCGCCCGA [AMX(71)_H9]	binds
GGGAGGACGAUGCGGAGAGAUUAUUAUAGAGUAUGUAUAGCUGUACUGCCAGACGACUCGCCCGA [AMX(74)_G6]	binds
GGGAGGACGAUGCGGAGGGAAUAUUAUAGAGUAUGUAUAGCUAUACCAUCAGACGACUCGCCCGA [AMX(71)_A8]	binds
GGGAGGACGAUGCGGAGUGAGUAUUAUAGAGUAUGUAUAGCUAUACACAUCAGACGACUCGCCCGA [S5CR8-28]	binds
GGGAGGACGAUGCGGAUAGAGCAUUAUAGAGUAUGUAUAGCUAUACUAUCAGACGACUCGCCCGA [AMX(71)_C11]	binds
GGGAGGACGAUGCGGAUCGAAUAUUAUAGAGUAUGUAUAGCUAUACGGUCAGACGACUCGCCCGA [AMX(71)_A11]	binds
GGGAGGACGAUGCGGAUCGAGUAUUAUAGAGUAUGUAUAGCUAUACGAUCAGACGACUCGCCCGA [S5CR12-27]	binds
GGGAGGACGAUGCGGAUCGAGUAUUAUAGAGUAUGUAUAGCUAUACUAUCAGACGACUCGCCCGA [AMX(71)_F7]	binds
GGGAGGACGAUGCGGAUGGAGUAUUAUAGAGUAUGUAUAGCUAUACCAUCAGACGACUCGCCCGA [AMX(71)_B11]	binds
GGGAGGACGAUGCGGGAAGAGUAUUACAGAGUAUGUAUAGCUGUACUGCCAGACGACUCGCCCGA [AMX(74)_D3]	binds
GGGAGGACGAUGCGGGCAAAGUAUUGUAGAGUAUGCAUAGCUAUAUUGCCAGACGACUCGCCCGA [AMX(74)_E6]	binds
GGGAGGACGAUGCGGGCAGAGUAUUAUAGAGUACGUAUAGCUAUACUGUCAGACGACUCGCCCGA [AMX(71)_B7]	binds
GGGAGGACGAUGCGGGCAGAGUAUUAUAGAGUAUGUAUAGCUAUACUGUCAGACGACUCGCCCGA [AMX(71)_A9]	binds

Sequence	binding result
GGGAGGACGAUGCGGGCGGAAUAUUAUAGAGUAUGGAUAGCUAUACCGUCAGACGACUCGCCCGA [S5CR12-14]	binds
GGGAGGACGAUGCGGGCGGCGUUGUUUAGUCGUAUGUAUAUACUAAGUCCGCCAGACGACUCGCCCGA [21a-4]	binds
GGGAGGACGAUGCGGGGAGAAUAUUACAGAGUAUGUAUAGCUGUACUGCCAGACGACUCGCCCGA [AMX(74)_A1]	binds
GGGAGGACGAUGCGGGGAGAAUAUUACAGAGUAUGUAUAGCUGUACUUGCCAGACGACUCGCCCGA [AMX(74)_C3]	binds
GGGAGGACGAUGCGGGGAGAGUAUUAUAGAGUAUGUAUAGCUAUACUGCCAGACGACUCGCCCGA [AMX(74)_G3]	binds
GGGAGGACGAUGCGGGGAGAUUAUUAUAGAGUAUGUAUAGCUAUACUGCCAGACGACUCGCCCGA [AMX(74)_B3]	binds
GGGAGGACGAUGCGGGGAGGAUGCGGAAGUAACGUUGUAGUAAAAUUCCUUCCAGACGACUCGCCCGA [14i-1]	binds
GGGAGGACGAUGCGGGUAGAAUAUUACAGAGUAUGUAUAGCUGUACUGCCAGACGACUCGCCCGA [AMX(74)_H1]	binds
GGGAGGACGAUGCGGGUAGAAUAUUAUAGAGUCUGUAUAGCUAUACUGCCAGACGACUCGCCCGA [AMX(74)_E2]	binds
GGGAGGACGAUGCGGGUAGAUUAUUACAGAGUCUGUAUAGCUGUACUGCCAGACGACUCGCCCGA [AMX(74)_A3]	binds
GGGAGGACGAUGCGGGUGGAGUAUUAUAGAGUAUGUAUAGCUAUACUAUCAGACGACUCGCCCAA [AMX(71)_G8]	binds
GGGAGGACGAUGCGGUAAGAGUAUUACAGAGUAUGUAUAGCUGUACUUGCCAGACGACUCGCCCGA [AMX(74)_A2]	binds
GGGAGGACGAUGCGGUAGAGUAUUAUAGAGUAUGUAUAGCUAUACACUCAGACGACUCGCCCAA [AMX(71)_D9]	binds
GGGAGGACGAUGCGGUAGAGUAUUAUAGAGUAUGUAUAGCUAUACCAUCAGACGACUCGCCCGA [AMX(71)_H12]	binds
GGGAGGACGAUGCGGUCCGCAUUAUCUUCUACGUUACAUAUACUAUCUCUGUCAGACGACUCGCCCGA [AMX(71)_B3]	binds
GGGAGGACGAUGCGGUCGGAGUAUUAUAGAGUAUGUAUAGCUAAACCGUCAGACGACUCGCCCGA [AMX(71)_D11]	binds
GGGAGGACGAUGCGGUGAGAAUAUUACAGAGUAUGUAUAGCUGUACUUGCCAGACGACUCGCCCGA [AMX(74)_E4]	binds
GGGAGGACGAUGCGGUGAGAAUAUUAUAGAGUAUGUAUAGCUAUACUCGCCAGACGACUCGCCCAA [AMX(74)_F4]	binds
GGGAGGACGAUGCGGUGGGAAUAUUAUAGAGUCUGUAUAGCUAUACCCUCAGACGACUCGCCCGA [AMX(71)_G7]	binds
GGGAGGACGAUGCGGUGUGAAUAUUAUAGAGUCUGUAUAGCUAUACCACCAGACGACUCGCCCGA [AMX(74)_F1]	binds
GGGAGGACGAUGCGGUGUGAAUAUUAUAGAGUCUGUAUAGCUAUACCAUCAGACGACUCGCCCGA [AMX(71)_A10]	binds
GGGAGGACGAUGGGGAUCGAGUAUUAUAGAGUCUGUAUAGCUAUACGAUCAGACGACUCGCCCGA [AMX(71)_B9]	binds

same assay, conditions: 5'-NH2, 2'-F all C and U, 2'-OH purines, 3'-3T; ±0.5, unit implied; 50 mM Hepes pH 7.4, 1 mM MgCl2, 1 mM CaCl2, room temperature; purified recombinant protein; variant of ARC77

Sequence	Kd [nM]
GGAGGUUAUUACAGAGUCUGUAUAGCUGUACUCC [ARC78]	4

same assay, conditions: NH2-mGmGmGmGfUfUAfUfUmAfCmAmGmAmGfUfCfUGfUAfUAmGfCfUmGfUmAfCfCfC-3T (m 2'-OMe, f 2'-F); ±0.4, unit implied; 50 mM Hepes pH 7.4, 1 mM MgCl2, 1 mM CaCl2, room temperature; purified recombinant protein; variant of ARC77

Sequence	Kd [nM]
GGGGUUAUUACAGAGUCUGUAUAGCUGUACCC [ARC81]	5.1

same assay, conditions: mGmGmAmGmGfUfUAfUfUmAfCmAmGmAmGfUfCfUGfUAfUAmGfCfUmGfUmAfCfUfCfc-3T (m 2'-OMe, f 2'-F); purified recombinant protein; variant of ARC77

Sequence	Kd [nM]
GGAGGUUAUUACAGAGUCUGUAUAGCUGUACUCC [ARC79]	1
